The series in a line: RRT study: LC-MS/MS urinary proteomics, AKI after cardiac surgery, RRT vs No RRT. Details: species or system human. The conditions noted are these: patients who did vs did not require RRT/dialysis; for Up or Down: direction of urinary abundance; for Mean Fold Change: read with the Up or Down column.

B1: Thyroxine-binding globulin (protein, UniProt P05543 21-415, looked up)
Thyroxine-binding globulin: ASPEGKVTACHSSQPNATLYKMSSINADFAFNLYRRFTVETPDKNIFFSPVSISAALVMLSFGACCSTQTEIVETLGFNLTDTPMVEIQHGFQHLICSLNFPKKELELQIGNALFIGKHLKPLAKFLNDVKTLYETEVFSTDFSNISAAKQEINSHVEMQTKGKVVGLIQDLKPNTIMVLVNYIHFKAQWANPFDPSKTEDSSSFLIDKTTTVQVPMMHQMEQYYHLVDMELNCTVLQMDYSKNALALFVLPKEGQMESVEAAMSSKTLKKWNRLLQKGWVDLFVPKFSISATYDLGATLLKMGIQHAYSENADFSGLTEDNGLKLSNAAHKAVLHIGEKGTEAAAVPEVELSDQPENTFLHPIIQIDRSFMLLILERSTRSILFLGKVVNPTEA
On to B1, for which the “Up or Down” value is “Up” and the “Mean Fold Change” value stood at 32.78.

B2: Gastrotropin (protein, UniProt P51161 2-128, looked up)
Gastrotropin: AFTGKFEMESEKNYDEFMKLLGISSDVIEKARNFKIVTEVQQDGQDFTWSQHYSGGHTMTNKFTVGKESNIQTMGGKTFKATVQMEGGKLVVNFPNYHQTSEIVGDKLVEVSTIGGVTYERVSKRLA
Take B2: the “Up or Down” value is “Up”.

B3: Connective tissue growth factor (protein, UniProt P29279 27-349, looked up)
CCN family member 2: QNCSGPCRCPDEPAPRCPAGVSLVLDGCGCCRVCAKQLGELCTERDPCDPHKGLFCHFGSPANRKIGVCTAKDGAPCIFGGTVYRSGESFQSSCKYQCTCLDGAVGCMPLCSMDVRLPSPDCPFPRRVKLPGKCCEEWVCDEPKDQTVVGPALAAYRLEDTFGPDPTMIRANCLVQTTEWSACSKTCGMGISTRVTNDNASCRLEKQSRLCMVRPCEADLEENIKKGKKCIRTPKISKPIKFELSGCTSMKTYRAKFCGVCTDGRCCTPHRTTTLPVEFKCPDGEVMKKNMMFIKTCACHYNCPGDNDIFESLYYRKMYGDMA
As to B3, the “Up or Down” value is given as “Up”.

B4: Intercellular adhesion molecule 2 (protein, UniProt P13598 25-275, looked up)
Intercellular adhesion …: KVFEVHVRPKKLAVEPKGSLEVNCSTTCNQPEVGGLETSLDKILLDEQAQWKHYLVSNISHDTVLQCHFTCSGKQESMNSNVSVYQPPRQVILTLQPTLVAVGKSFTIECRVPTVEPLDSLTLFLFRGNETLHYETFGKAAPAPQEATATFNSTADREDGHRNFSCLAVLDLMSRGGNIFHKHSAPKMLEIYEPVSDSQMVIIVTVVSVLLSLFVTSVLLCFIFGQHLRQQRMGTYGVRAAWRRLPQAFRP
As for B4, the “Up or Down” value is recorded as “Up”.

B5: Thioredoxin (protein, UniProt P10599 2-105, looked up)
Thioredoxin: VKQIESKTAFQEALDAAGDKLVVVDFSATWCGPCKMIKPFFHSLSEKYSNVIFLEVDVDDCQDVASECEVKCMPTFQFFKKGQKVGEFSGANKEKLEATINELV
In the case of B5, the “Up or Down” value was “Up”.

B6: Dermokine (protein, UniProt Q6E0U4 22-476, looked up)
Dermokine: GPLQSGEESTGTNIGEALGHGLGDALSEGVGKAIGKEAGGAAGSKVSEALGQGTREAVGTGVRQVPGFGVADALGNRVGEAAHALGNTGHEIGRQAEDVIRHGADAVRGSWQGVPGHNGAWETSGGHGIFGSQGGLGGQGQGNPGGLGTPWVHGYPGNSAGSFGMNPQGAPWGQGGNGGPPNFGTNTQGAVAQPGYGSVRASNQNEGCTNPPPSGSGGGSSNSGGGSGSQSGSSGSGSNGDNNNGSSSGGSSSGSSSGGSSGGSSGGSSGNSGGSRGDSGSESSWGSSTGSSSGNHGGSGGGNGHKPGCEKPGNEARGSGESGIQNSETSPGMFNFDTFWKNFKSKLGFINWDAINKNQVPPPSTRALLYFSRLWEDFKQNTPFLNWKAIIEGADASSLQKRAGRDDQNYNYNQHAYPTAYGGKYSVKTPAKGGVSPSSSASRVQPGLLQWVKFW
As to B6, the “Up or Down” value is given as “Up” and the “Mean Fold Change” value was 13.85.

B7: Fructose-bisphosphate aldolase B (protein, UniProt P05062 2-364, looked up)
Fructose-bisphosphate …: AHRFPALTQEQKKELSEIAQSIVANGKGILAADESVGTMGNRLQRIKVENTEENRRQFREILFSVDSSINQSIGGVILFHETLYQKDSQGKLFRNILKEKGIVVGIKLDQGGAPLAGTNKETTIQGLDGLSERCAQYKKDGVDFGKWRAVLRIADQCPSSLAIQENANALARYASICQQNGLVPIVEPEVIPDGDHDLEHCQYVTEKVLAAVYKALNDHHVYLEGTLLKPNMVTAGHACTKKYTPEQVAMATVTALHRTVPAAVPGICFLSGGMSEEDATLNLNAINLCPLPKPWKLSFSYGRALQASALAAWGGKAANKEATQEAFMKRAMANCQAAKGQYVHTGSSGAASTQSLFTACYTY
With B7, the “Up or Down” value is listed as “Up” and the “Mean Fold Change” value came out at 9.539.

B8: Protein NOV homolog (protein, UniProt P48745 32-357, looked up)
CCN family member 3: TQRCPPQCPGRCPATPPTCAPGVRAVLDGCSCCLVCARQRGESCSDLEPCDESSGLYCDRSADPSNQTGICTAVEGDNCVFDGVIYRSGEKFQPSCKFQCTCRDGQIGCVPRCQLDVLLPEPNCPAPRKVEVPGECCEKWICGPDEEDSLGGLTLAAYRPEATLGVEVSDSSVNCIEQTTEWTACSKSCGMGFSTRVTNRNRQCEMLKQTRLCMVRPCEQEPEQPTDKKGKKCLRTKKSLKAIHLQFKNCTSLHTYKPRFCGVCSDGRCCTPHNTKTIQAEFQCSPGQIVKKPVMVIGTCTCHTNCPKNNEAFLQELELKTTRGKM
In the case of B8, the “Up or Down” value is “Up” and the “Mean Fold Change” value came out at 12.93.

B9: Phosphoglycerate kinase 1 (protein, UniProt P00558 2-417, looked up)
Phosphoglycerate kinase 1: SLSNKLTLDKLDVKGKRVVMRVDFNVPMKNNQITNNQRIKAAVPSIKFCLDNGAKSVVLMSHLGRPDGVPMPDKYSLEPVAVELKSLLGKDVLFLKDCVGPEVEKACANPAAGSVILLENLRFHVEEEGKGKDASGNKVKAEPAKIEAFRASLSKLGDVYVNDAFGTAHRAHSSMVGVNLPQKAGGFLMKKELNYFAKALESPERPFLAILGGAKVADKIQLINNMLDKVNEMIIGGGMAFTFLKVLNNMEIGTSLFDEEGAKIVKDLMSKAEKNGVKITLPVDFVTADKFDENAKTGQATVASGIPAGWMGLDCGPESSKKYAEAVTRAKQIVWNGPVGVFEWEAFARGTKALMDEVVKATSRGCITIIGGGDTATCCAKWNTEDKVSHVSTGGGASLELLEGKVLPGVDALSNI
For B9, the “Up or Down” value is “Up” and the “Mean Fold Change” value was determined as 6.053.

B10: Junctional adhesion molecule A (protein, UniProt Q9Y624 28-299, looked up)
Junctional adhesion molecule A: SVTVHSSEPEVRIPENNPVKLSCAYSGFSSPRVEWKFDQGDTTRLVCYNNKITASYEDRVTFLPTGITFKSVTREDTGTYTCMVSEEGGNSYGEVKVKLIVLVPPSKPTVNIPSSATIGNRAVLTCSEQDGSPPSEYTWFKDGIVMPTNPKSTRAFSNSSYVLNPTTGELVFDPLSASDTGEYSCEARNGYGTPMTSNAVRMEAVERNVGVIVAAVLVTLILLGILVFGIWFAYSRGHFDRTKKGTSSKKVIYSQPSARSEGEFKQTSSFLV
Regarding B10, the “Up or Down” value was “Up” and the “Mean Fold Change” value came to 14.17.

B11: Alpha-2-antiplasmin (protein, UniProt P08697 40-491, looked up)
Alpha-2-antiplasmin: NQEQVSPLTLLKLGNQEPGGQTALKSPPGVCSRDPTPEQTHRLARAMMAFTADLFSLVAQTSTCPNLILSPLSVALALSHLALGAQNHTLQRLQQVLHAGSGPCLPHLLSRLCQDLGPGAFRLAARMYLQKGFPIKEDFLEQSEQLFGAKPVSLTGKQEDDLANINQWVKEATEGKIQEFLSGLPEDTVLLLLNAIHFQGFWRNKFDPSLTQRDSFHLDEQFTVPVEMMQARTYPLRWFLLEQPEIQVAHFPFKNNMSFVVLVPTHFEWNVSQVLANLSWDTLHPPLVWERPTKVRLPKLYLKHQMDLVATLSQLGLQELFQAPDLRGISEQSLVVSGVQHQSTLELSEVGVEAAAATSIAMSRMSLSSFSVNRPFLFFIFEDTTGLPLFVGSVRNPNPSAPRELKEQQDSPGNKDFLQSLKGFPRGDKLFGPDLKLVPPMEEDYPQFGSPK
As to B11, the “Up or Down” value is given as “Up”.

The values are drawn from patent US20140038203A1, “METHODS FOR DETECTING OR PREDICTING KIDNEY DISEASE” (MUSC FOUNDATION FOR RESEARCH DEVELOPMENT, priority 2012, published 2014).
